In article PMC9606306:
No constants are given. Whether binding was seen depends on the method and setting. In cells and extracts the contact can be indirect. Binding can be weak; no strength is given.

Biological target: T1, ATPase family AAA domain-containing 3A (ATAD3A), endogenous (human (endogenous in MDA-MB-468, BT549, HeLa229, HEK293T)) (UniProt Q9NVI7)
T1 sequence: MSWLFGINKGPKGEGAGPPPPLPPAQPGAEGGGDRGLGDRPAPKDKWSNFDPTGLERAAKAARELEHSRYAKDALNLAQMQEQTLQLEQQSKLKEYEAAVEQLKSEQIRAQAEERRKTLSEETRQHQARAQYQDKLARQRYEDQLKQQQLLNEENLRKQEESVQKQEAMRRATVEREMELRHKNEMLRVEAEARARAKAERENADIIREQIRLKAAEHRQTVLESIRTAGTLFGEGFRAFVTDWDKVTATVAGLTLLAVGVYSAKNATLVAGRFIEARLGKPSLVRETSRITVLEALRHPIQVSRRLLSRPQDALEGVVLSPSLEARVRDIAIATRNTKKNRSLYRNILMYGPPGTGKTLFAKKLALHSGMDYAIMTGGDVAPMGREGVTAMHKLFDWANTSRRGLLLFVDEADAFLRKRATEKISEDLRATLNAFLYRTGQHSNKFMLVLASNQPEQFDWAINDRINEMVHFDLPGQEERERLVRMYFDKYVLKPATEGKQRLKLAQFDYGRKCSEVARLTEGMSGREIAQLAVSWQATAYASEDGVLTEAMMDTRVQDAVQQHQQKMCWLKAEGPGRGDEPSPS
Assay: co-IP; HEK293T cells transfected with GFP-MUC1-CD truncated mutant plasmids; IP with anti-ATAD3A antibody, blot with anti-GFP and anti-ATAD3A

In the case of GFP-MUC1-CD1-20 (domain or fragment), the binding is reported as “binds”.
